# The list does not hold the whole screen: it is rich in T/C values a quarter to a half above the control, in often repeated tests (any T/C) and in doses without a T/C. Further doses and runs are listed elsewhere. T/C is the treated group as % of the vehicle group. Some doses have a count of surviving animals in place of a T/C: the source holds a T/C of zero for them, seemingly a mark for toxic or unscored doses. Some doses without a T/C left all or most animals alive at the check, yet need not have been tolerated: the source hardly ever lists a survival T/C far under the control, and the zero likely stands for such cases as well. Survivors were counted at the toxicity check, usually on the fifth day, unless a day is given; later deaths do not show. Schedule codes are those of the source, taken here to give the interval after Q, in days (D) or hours (H), and the number of doses after X. Some entries were tested several times; the values are given in rising order. Signs of the kind (2×) stand for listed records that agree. Where survival is the endpoint, this PubChem deposit counts one and a half times the control or more as active, and values a quarter to a half above the control carry no call in these data; other NCI protocols may use other cut-offs. Some T/C values carry the count of animals alive at the toxicity check (mostly the fifth day); without a count, all were alive then.
# Test system: P388 leukemia ip, CD2F1 mice, survival T/C
# Experiment: NCI In Vivo Anticancer Drug Screen. Data for tumor model P388 Leukemia (intraperitoneal) in CD2F1 (CDF1) mice
# Details: T/C endpoint: median survival time, higher T/C = longer survival
# [1] = dose: 120.0 mg/kg/injection, schedule: Q01DX005 (ip), vehicle: saline
# [2] = dose: 240.0 mg/kg/injection, schedule: Q01DX005 (ip), vehicle: saline
# [3] = dose: 100.0 mg/kg/injection, schedule: Q01DX005 (ip), vehicle: saline with Tween-80
# [4] = dose: 200.0 mg/kg/injection, schedule: Q01DX005 (ip), vehicle: saline with Tween-80
# [5] = dose: 50.0 mg/kg/injection, schedule: Q01DX005 (ip), vehicle: saline with Tween-80
# [6] = dose: 25.0 mg/kg/injection, schedule: Q01DX005 (ip), vehicle: saline
compound,measurement,setting,value
C=C1C(=O)O[C@@H]2C[C@H](C)[C@@H]3CC[C@H](O)[C@@]3(CO)C[C@H]12,survivor count,"dose: 25.0 mg/kg/injection, schedule: Q01DX005 (ip), vehicle: Klucel (hydroxypropylcellulose) (HPC)",0 of 6
same,T/C,"dose: 100.0 mg/kg/injection, schedule: Q01DX005 (ip), vehicle: Klucel (hydroxypropylcellulose) (HPC)",128 % of control
same,survivor count,"dose: 200.0 mg/kg/injection, schedule: Q01DX005 (ip), vehicle: Klucel (hydroxypropylcellulose) (HPC)",3 of 6
CCN(CC)CCO/N=C1\CC(c2ccc(OC)c(OC)c2)Oc2ccccc21 (centres undefined),survivor count,[1],0 of 6
same,survivor count,[2],0 of 6
O=C(NCc1cc(CNC(=O)c2cccc(O)c2O)cc(CNC(=O)c2cccc(O)c2O)c1)c1cccc(O)c1O,survivor count,[3],4 of 5
same,survivor count,[4],0 of 5
O=C1c2ccccc2C(=O)N1C[P+](c1ccccc1)(c1ccccc1)c1ccccc1,T/C,"dose: 6.25 mg/kg/injection, schedule: Q01DX009 (ip), vehicle: water",129 % of control
same,T/C,"dose: 8.33 mg/kg/injection, schedule: Q01DX009 (ip), vehicle: water",129 % of control
same,T/C,"dose: 12.5 mg/kg/injection, schedule: Q01DX009 (ip), vehicle: water",129 and 134 % of control
same,T/C,"dose: 18.8 mg/kg/injection, schedule: Q01DX009 (ip), vehicle: water",136 % of control
C/C(=N\Nc1ccccn1)c1ccccn1,survivor count,[5],1 of 6
same,survivor count,[3],0 of 6
same,survivor count,[4],0 of 6
Cc1ccc([NH-])c(C(=O)O)c1.Cc1ccc([NH-])c(C(=O)O)c1.[Cu+2],survivor count,[5],0 of 5
same,survivor count,[3],0 of 5
same,survivor count,[4],0 of 5
CCN(CC)Cc1cc2[nH]c3c4ccc(Cl)cc4ncc3c2cc1OC (tested in a mixture with another compound),T/C,[5],129 % of control
same,survivor count,[3],0 of 5
same,survivor count,[4],1 of 5 (2×)
O=C1C(Cl)=C(Nc2cccc3cc4ccccc4nc23)C(=O)c2ccccc21,survivor count,"dose: 20.0 mg/kg/injection, schedule: Q01DX009 (ip), vehicle: saline",5 of 6
O=C1NCCCCC1(Cl)Cl,survivor count,[3],2 of 5
same,survivor count,[4],0 of 5
CCOC(=O)CNC(=O)/C=C\C(=O)NC(=O)OCC,survivor count,"dose: 15.0 mg/kg/injection, schedule: Q01DX009 (ip), vehicle: saline with Tween-80",2 of 6 and 6 of 6
same,survivor count,"dose: 30.0 mg/kg/injection, schedule: Q01DX009 (ip), vehicle: saline with Tween-80",0 of 6
same,survivor count,"dose: 60.0 mg/kg/injection, schedule: Q01DX009 (ip), vehicle: saline with Tween-80",0 of 6
same,survivor count,"dose: 120.0 mg/kg/injection, schedule: Q01DX009 (ip), vehicle: saline with Tween-80",0 of 6
same,survivor count,"dose: 240.0 mg/kg/injection, schedule: Q01DX009 (ip), vehicle: saline with Tween-80",0 of 6
CC(=O)Nc1ccc(S(=O)(=O)CC#N)cc1,survivor count,"dose: 200.0 mg/kg/injection, schedule: Q01DX009 (ip), vehicle: suspension in saline",6 of 6
O=C1CC(c2ccc(Cl)cc2)C(c2ccc(Cl)cc2)C1C(=O)OC1CCCCC1 (centres undefined),survivor count,"dose: 12.5 mg/kg/injection, schedule: Q01DX001 (ip), vehicle: Klucel (hydroxypropylcellulose) (HPC)",6 of 6
same,survivor count,"dose: 25.0 mg/kg/injection, schedule: Q01DX001 (ip), vehicle: Klucel (hydroxypropylcellulose) (HPC)",6 of 6
same,survivor count,"dose: 50.0 mg/kg/injection, schedule: Q01DX001 (ip), vehicle: Klucel (hydroxypropylcellulose) (HPC)",6 of 6
same,survivor count,"dose: 100.0 mg/kg/injection, schedule: Q01DX001 (ip), vehicle: Klucel (hydroxypropylcellulose) (HPC)",5 of 6
same,survivor count,"dose: 200.0 mg/kg/injection, schedule: Q01DX001 (ip), vehicle: Klucel (hydroxypropylcellulose) (HPC)",6 of 6
COc1cccc(/C(C#N)=N/NC(=O)c2nc[nH]c2C)c1,survivor count,"dose: 12.5 mg/kg/injection, schedule: Q01DX005 (ip), vehicle: saline with Tween-80",6 of 6
same,survivor count,"dose: 25.0 mg/kg/injection, schedule: Q01DX005 (ip), vehicle: saline with Tween-80",6 of 6
same,survivor count,[5],5 of 6
c1csc(CSc2ncnc3nc[nH]c23)c1,T/C,"dose: 400.0 mg/kg/injection, schedule: Q04DX003 (ip), vehicle: saline with Tween-80",133 % of control [5 of 6 alive]
same,survivor count,"dose: 600.0 mg/kg/injection, schedule: Q04DX003 (ip), vehicle: saline with Tween-80",3 of 6
CC1(C)CC(=O)c2c(oc3cc4c5c(oc4cc23)CC(C)(C)CC5=O)C1,survivor count,[5],5 of 5 and 6 of 6
CCC1OCC(C(Cl)CCl)O1 (centres undefined),survivor count,"dose: 400.0 mg/kg/injection, schedule: Q01DX005 (ip), vehicle: saline with Tween-80",0 of 6
c1cc2cc3c(cc2o1)OC[C@H]1c2cc4c(cc2O[C@@H]31)OCO4,survivor count,"dose: 400.0 mg/kg/injection, schedule: Q01DX001 (ip), vehicle: Klucel (hydroxypropylcellulose) (HPC)",6 of 6
O=C(Nc1cccc(Cl)c1)c1cc(N=Nc2ccc([N+](=O)[O-])cc2Cl)ccc1O,survivor count,"dose: 25.0 mg/kg/injection, schedule: Q01DX009 (ip), vehicle: saline with Tween-80",5 of 6
same,survivor count,"dose: 50.0 mg/kg/injection, schedule: Q01DX009 (ip), vehicle: saline with Tween-80",5 of 6
same,survivor count,"dose: 100.0 mg/kg/injection, schedule: Q01DX009 (ip), vehicle: saline with Tween-80",0 of 6
same,survivor count,"dose: 200.0 mg/kg/injection, schedule: Q01DX009 (ip), vehicle: saline with Tween-80",0 of 6
same,survivor count,"dose: 400.0 mg/kg/injection, schedule: Q04DX003 (ip), vehicle: Klucel (hydroxypropylcellulose) (HPC)",0 of 6
CCCCN(CCCC)CC(O)c1c(OC)c2cc(Cl)ccc2c2ccc(Cl)cc12 (centres undefined),survivor count,"dose: 12.5 mg/kg/injection, schedule: Q01DX009 (ip), vehicle: saline with Tween-80",6 of 6
C=C(C)C12CC(C)C34OC5(CCCCCCCC(C)C6C(C)C(OC(=O)c7ccccc7)C(O)(C(O)C7(CO)OC7C3C1O5)C64)O2 (centres undefined),T/C,"dose: 20.0 micrograms/kg/injection, schedule: Q01DX009 (ip), vehicle: saline + alcohol",132 % of control
same,T/C,"dose: 40.0 micrograms/kg/injection, schedule: Q01DX009 (ip), vehicle: saline + alcohol",133 % of control
same,survivor count,"dose: 80.0 micrograms/kg/injection, schedule: Q01DX009 (ip), vehicle: saline + alcohol",6 of 6
Cc1nccc2cccc(CNC(C)C)c12,survivor count,"dose: 400.0 mg/kg/injection, schedule: Q01DX001 (ip), vehicle: saline",0 of 6
CC(C(=O)O)S(=O)(=O)O (centres undefined),survivor count,"dose: 80.0 mg/kg/injection, schedule: Q01DX009 (ip), vehicle: saline with Tween-80",0 of 6
C=C1C(=O)OC2/C=C(\CO)C(OC(C)=O)CC(O)/C(C)=C/C(OC(=O)C(C)CC)C12 (centres undefined),T/C,"dose: 25.0 mg/kg/injection, schedule: Q01DX009 (ip), vehicle: Klucel (hydroxypropylcellulose) (HPC)",134 and 140 % of control
same,T/C,"dose: 50.0 mg/kg/injection, schedule: Q01DX009 (ip), vehicle: Klucel (hydroxypropylcellulose) (HPC)",128 and 141 % of control
same,T/C,"dose: 100.0 mg/kg/injection, schedule: Q01DX009 (ip), vehicle: Klucel (hydroxypropylcellulose) (HPC)",127 % of control
same,survivor count,"dose: 200.0 mg/kg/injection, schedule: Q01DX009 (ip), vehicle: Klucel (hydroxypropylcellulose) (HPC)",6 of 6
COc1cc([C@@H]2c3cc4c(cc3[C@H](OC(=O)CCCC(=O)O)[C@H]3COC(=O)[C@H]23)OCO4)cc(OC)c1OC,T/C,[6],138 % of control
same,survivor count,[6],2 of 6
same,survivor count,"dose: 50.0 mg/kg/injection, schedule: Q01DX005 (ip), vehicle: saline",0 of 6 and 2 of 6
same,survivor count,"dose: 100.0 mg/kg/injection, schedule: Q01DX005 (ip), vehicle: saline",0 of 6
same,survivor count,"dose: 200.0 mg/kg/injection, schedule: Q01DX005 (ip), vehicle: saline",0 of 6
CN(C)CC(CN(C)C)C(=O)c1ccc(Oc2ccc(Cl)c(Cl)c2)cc1,survivor count,"dose: 7.5 mg/kg/injection, schedule: Q01DX005 (ip), vehicle: saline",2 of 6
same,survivor count,"dose: 15.0 mg/kg/injection, schedule: Q01DX005 (ip), vehicle: saline",5 of 6
same,survivor count,"dose: 30.0 mg/kg/injection, schedule: Q01DX005 (ip), vehicle: saline",0 of 6
same,survivor count,"dose: 60.0 mg/kg/injection, schedule: Q01DX005 (ip), vehicle: saline",0 of 6
same,survivor count,[1],0 of 6
same,survivor count,[2],0 of 6
O=c1sc2ccccc2nc1NNc1ccccc1,survivor count,[4],6 of 6

# From PubChem BioAssay AID330 (DTP/NCI, 2004)
